Source: publication PMC5082755
Results are given in words; binding and its absence hold for the method and conditions named. In cells and extracts the contact can be indirect. Some results given as binding are weak or reduced against the parent protein; the word gives no strength. For some assays here: Tags and fused reporters may be left off the sequences shown.

Amino acid sequences for entries named in this document (tags omitted).
UniProt P78337: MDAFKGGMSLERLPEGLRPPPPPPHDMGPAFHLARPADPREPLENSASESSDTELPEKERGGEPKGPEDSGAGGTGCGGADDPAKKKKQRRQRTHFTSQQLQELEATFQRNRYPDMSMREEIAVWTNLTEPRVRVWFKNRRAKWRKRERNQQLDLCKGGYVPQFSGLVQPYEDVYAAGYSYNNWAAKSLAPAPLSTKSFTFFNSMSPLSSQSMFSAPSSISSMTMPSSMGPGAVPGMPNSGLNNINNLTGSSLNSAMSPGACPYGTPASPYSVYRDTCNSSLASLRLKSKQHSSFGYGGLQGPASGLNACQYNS

Key:
[1] = target: T1, Protein tyrosine phosphatase 1B (human (endogenous in DLD1)) (UniProt P18031); experiment: co-IP; endogenous immunoprecipitation from DLD1 cells, western blot; which protein was precipitated is not told
T1 sequence: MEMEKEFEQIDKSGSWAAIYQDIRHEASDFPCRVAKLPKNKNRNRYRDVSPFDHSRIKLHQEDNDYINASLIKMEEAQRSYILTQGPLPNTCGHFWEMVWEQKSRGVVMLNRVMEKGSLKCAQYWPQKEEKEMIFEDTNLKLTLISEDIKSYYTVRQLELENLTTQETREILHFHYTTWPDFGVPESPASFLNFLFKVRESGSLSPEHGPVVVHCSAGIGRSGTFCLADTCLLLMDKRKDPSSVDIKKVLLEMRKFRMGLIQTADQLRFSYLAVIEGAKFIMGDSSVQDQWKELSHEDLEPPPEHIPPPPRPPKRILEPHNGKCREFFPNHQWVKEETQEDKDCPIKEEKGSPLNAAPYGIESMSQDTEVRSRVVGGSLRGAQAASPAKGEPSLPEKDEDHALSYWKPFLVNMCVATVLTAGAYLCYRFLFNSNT

[2] = target: T2, Protein tyrosine phosphatase 1B, overexpressed with myc-tag (human) (UniProt P18031); experiment: co-IP; Hct-116 cells overexpressing PTP1B, immunoprecipitation, western blot
T2 sequence: T1 sequence

Row | Substance | binding [1] | binding [2]
1 | PITX1 (from UniProt P78337 1-314) | binds | 
2 | PITX1 in Hct-116 cells (from UniProt P78337 1-314) |  | binds
